The results in this text go back to patent US20020076736A1, “Methods of affecting laminin 5 processing” (priority 2000, published 2002).

Protein sequences, listed by entry. Tags and fused reporters are not part of them. Lines headed by an entry give the natural chain unless they say otherwise; changes in a name come on top.
UniProt Q13751: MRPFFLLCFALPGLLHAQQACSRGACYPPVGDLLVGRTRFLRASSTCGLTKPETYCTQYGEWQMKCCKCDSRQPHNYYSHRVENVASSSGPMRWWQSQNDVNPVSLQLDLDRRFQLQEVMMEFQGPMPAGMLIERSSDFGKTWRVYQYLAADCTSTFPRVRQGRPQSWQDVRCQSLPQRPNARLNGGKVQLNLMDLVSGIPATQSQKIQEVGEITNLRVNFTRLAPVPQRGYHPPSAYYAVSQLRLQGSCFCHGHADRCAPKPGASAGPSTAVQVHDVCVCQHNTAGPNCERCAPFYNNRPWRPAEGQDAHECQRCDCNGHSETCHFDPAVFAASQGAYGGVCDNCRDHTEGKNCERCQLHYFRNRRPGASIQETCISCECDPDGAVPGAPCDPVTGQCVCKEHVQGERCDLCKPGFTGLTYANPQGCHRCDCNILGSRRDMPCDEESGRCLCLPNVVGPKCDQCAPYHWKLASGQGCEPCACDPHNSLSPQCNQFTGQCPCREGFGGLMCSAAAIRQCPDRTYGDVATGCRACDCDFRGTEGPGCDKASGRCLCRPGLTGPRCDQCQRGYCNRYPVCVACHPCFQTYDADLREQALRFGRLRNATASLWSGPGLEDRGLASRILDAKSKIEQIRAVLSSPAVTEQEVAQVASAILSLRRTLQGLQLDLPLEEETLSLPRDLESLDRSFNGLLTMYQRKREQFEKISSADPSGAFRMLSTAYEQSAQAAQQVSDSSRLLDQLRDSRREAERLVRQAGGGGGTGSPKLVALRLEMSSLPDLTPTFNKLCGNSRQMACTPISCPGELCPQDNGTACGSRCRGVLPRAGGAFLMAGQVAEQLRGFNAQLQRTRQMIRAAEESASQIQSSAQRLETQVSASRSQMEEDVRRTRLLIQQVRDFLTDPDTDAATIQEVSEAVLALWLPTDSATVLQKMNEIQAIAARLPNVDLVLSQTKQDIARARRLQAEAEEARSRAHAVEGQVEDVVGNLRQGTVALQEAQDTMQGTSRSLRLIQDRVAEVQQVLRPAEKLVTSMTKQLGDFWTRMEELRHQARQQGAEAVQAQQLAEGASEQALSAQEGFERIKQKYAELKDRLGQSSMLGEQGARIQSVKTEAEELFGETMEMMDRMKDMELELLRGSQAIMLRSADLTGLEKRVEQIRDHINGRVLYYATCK
UniProt Q13753: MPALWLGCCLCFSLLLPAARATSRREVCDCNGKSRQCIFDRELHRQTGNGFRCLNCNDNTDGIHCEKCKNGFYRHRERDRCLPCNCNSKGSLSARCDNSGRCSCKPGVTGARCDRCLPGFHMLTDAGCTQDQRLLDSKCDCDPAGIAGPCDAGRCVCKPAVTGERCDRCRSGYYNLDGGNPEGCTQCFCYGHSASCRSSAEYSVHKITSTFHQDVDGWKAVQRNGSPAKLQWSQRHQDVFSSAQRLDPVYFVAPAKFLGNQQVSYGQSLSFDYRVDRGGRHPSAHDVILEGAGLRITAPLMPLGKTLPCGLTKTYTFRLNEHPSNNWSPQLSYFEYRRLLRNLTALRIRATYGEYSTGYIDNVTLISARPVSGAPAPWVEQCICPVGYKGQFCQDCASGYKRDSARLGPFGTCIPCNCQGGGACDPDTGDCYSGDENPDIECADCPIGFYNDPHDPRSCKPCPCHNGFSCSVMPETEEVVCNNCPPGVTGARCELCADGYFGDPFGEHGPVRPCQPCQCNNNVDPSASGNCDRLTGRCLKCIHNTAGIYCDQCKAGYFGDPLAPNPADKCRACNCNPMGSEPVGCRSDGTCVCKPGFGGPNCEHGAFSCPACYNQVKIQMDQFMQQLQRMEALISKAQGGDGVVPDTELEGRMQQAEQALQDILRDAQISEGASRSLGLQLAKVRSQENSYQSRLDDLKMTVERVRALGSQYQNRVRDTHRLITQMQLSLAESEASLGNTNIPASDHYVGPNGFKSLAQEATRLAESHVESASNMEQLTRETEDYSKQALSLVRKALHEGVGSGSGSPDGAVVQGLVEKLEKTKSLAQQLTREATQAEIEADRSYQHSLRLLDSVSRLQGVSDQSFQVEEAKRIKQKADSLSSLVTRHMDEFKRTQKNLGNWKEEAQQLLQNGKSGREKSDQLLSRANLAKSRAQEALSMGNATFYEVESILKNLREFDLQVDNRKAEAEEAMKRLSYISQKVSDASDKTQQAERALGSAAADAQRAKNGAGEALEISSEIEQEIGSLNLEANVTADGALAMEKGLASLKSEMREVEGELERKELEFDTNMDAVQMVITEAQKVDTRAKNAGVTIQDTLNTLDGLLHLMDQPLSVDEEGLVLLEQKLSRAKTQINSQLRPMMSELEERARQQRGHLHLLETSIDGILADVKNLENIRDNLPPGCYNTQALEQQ
UniProt P23229: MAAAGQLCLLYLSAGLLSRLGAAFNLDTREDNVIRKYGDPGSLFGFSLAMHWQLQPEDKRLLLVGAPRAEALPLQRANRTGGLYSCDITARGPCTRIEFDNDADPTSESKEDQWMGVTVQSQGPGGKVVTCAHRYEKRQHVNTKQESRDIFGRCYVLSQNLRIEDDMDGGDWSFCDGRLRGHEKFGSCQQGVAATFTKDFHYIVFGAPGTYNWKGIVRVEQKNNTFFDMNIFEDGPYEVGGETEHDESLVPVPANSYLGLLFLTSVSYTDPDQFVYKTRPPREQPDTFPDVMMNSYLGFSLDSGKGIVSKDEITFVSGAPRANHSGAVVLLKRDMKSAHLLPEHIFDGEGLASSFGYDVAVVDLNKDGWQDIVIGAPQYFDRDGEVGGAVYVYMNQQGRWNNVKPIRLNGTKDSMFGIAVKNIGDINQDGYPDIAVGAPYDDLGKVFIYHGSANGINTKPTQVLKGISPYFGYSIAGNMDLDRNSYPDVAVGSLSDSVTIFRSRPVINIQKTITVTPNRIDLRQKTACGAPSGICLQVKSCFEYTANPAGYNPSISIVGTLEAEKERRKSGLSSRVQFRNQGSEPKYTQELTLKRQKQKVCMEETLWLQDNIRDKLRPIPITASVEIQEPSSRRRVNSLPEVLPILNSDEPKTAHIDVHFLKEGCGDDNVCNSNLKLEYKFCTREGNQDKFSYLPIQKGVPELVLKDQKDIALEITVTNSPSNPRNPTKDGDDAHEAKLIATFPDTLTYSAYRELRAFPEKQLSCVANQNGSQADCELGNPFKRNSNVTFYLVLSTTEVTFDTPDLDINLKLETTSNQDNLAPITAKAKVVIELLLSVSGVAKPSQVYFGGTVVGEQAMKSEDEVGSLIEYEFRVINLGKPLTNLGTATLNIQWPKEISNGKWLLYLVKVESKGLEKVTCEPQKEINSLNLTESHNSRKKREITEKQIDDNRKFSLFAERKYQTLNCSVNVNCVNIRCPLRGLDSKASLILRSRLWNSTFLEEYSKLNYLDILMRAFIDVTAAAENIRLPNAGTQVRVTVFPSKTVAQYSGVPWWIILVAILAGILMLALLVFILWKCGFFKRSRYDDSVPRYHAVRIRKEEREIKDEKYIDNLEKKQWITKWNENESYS

Results are given in words; binding and its absence hold for the method and conditions named. Some results given as binding are weak or reduced against the parent protein; the word gives no strength.

In the experiment the target is processed human laminin 5 (α3 chain of 165 kDa, γ2 chain of 105 kDa) (human) (UniProt Q16787+Q13751+Q13753). The experiment in a line: antibody blocking of keratinocyte attachment to laminin 5 matrix.

Take “α6β4 integrin (from UniProt P23229 24-1130; P16144 28-1822) (receptor)”: the binding entry is given as “binds”.
